{"source": "PubChem BioAssay AID686943 (Drosophila RNAi Screening Center, 2013)", "purpose": "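Search across the genome for regulators of signalling from receptor tyrosine kinase to ERK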 (primary screen)", "cell system": "Drosophila S2R+ haemocyte-like cells expressing YFP-tagged ERK (Rolled)", "knock-down reagent": "long dsRNA against Drosophila genes", "treatment": "insulin stimulation versus unstimulated cells; dose and duration not given", "read-out": "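Per-plate z-scores of phospho-ERK immunostaining normalised to YFP-tagged ERK, measured with and without insulin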", "scale": "replicate 1, z-score of dpERK with insulin and replicate 2, z-score of dpERK with insulin: higher = more active ERK per ERK-YFP after insulin", "note": "The deposit covers about 23,000 reagents; below is an unselected part of those with a known target gene and a result. 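Extra replicates exist only for a retested subset of genes; insulin dose and duration not given; both raised and lowered dpERK matter.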 A plus sign joins genes that one reagent is predicted to hit. Further read-outs or replicates are left out here. The record does not give: the amount of reagent, the time to read-out."}
{"gene":"GstE1","amplicon":"DRSC07437","replicate 1, z-score of dpERK with insulin":-0.09,"replicate 2, z-score of dpERK with insulin":-0.26}
{"gene":"rig","amplicon":"DRSC06053","replicate 1, z-score of dpERK with insulin":-0.96,"replicate 2, z-score of dpERK with insulin":-0.47}
{"gene":"rig","amplicon":"DRSC06400","replicate 1, z-score of dpERK with insulin":0.14,"replicate 2, z-score of dpERK with insulin":0.07}
{"gene":"Atg16","amplicon":"DRSC15052","replicate 1, z-score of dpERK with insulin":-0.98,"replicate 2, z-score of dpERK with insulin":-1.01}
{"gene":"Atg16","amplicon":"DRSC15300","replicate 1, z-score of dpERK with insulin":0.08,"replicate 2, z-score of dpERK with insulin":1.26}
{"gene":"Atg16","amplicon":"DRSC15375","replicate 1, z-score of dpERK with insulin":0.6,"replicate 2, z-score of dpERK with insulin":-0.03}
{"gene":"noc","amplicon":"DRSC03580","replicate 1, z-score of dpERK with insulin":0.13,"replicate 2, z-score of dpERK with insulin":-1.11}
{"gene":"CR17438","amplicon":"DRSC18125","replicate 1, z-score of dpERK with insulin":0.3,"replicate 2, z-score of dpERK with insulin":0.9}
{"gene":"SCCRO","amplicon":"DRSC10844","replicate 1, z-score of dpERK with insulin":-0.81,"replicate 2, z-score of dpERK with insulin":0.78}
{"gene":"Phs","amplicon":"DRSC10827","replicate 1, z-score of dpERK with insulin":-1.29,"replicate 2, z-score of dpERK with insulin":-1.1}
{"gene":"CG13398","amplicon":"DRSC02268","replicate 1, z-score of dpERK with insulin":0.3,"replicate 2, z-score of dpERK with insulin":-0.07}
{"gene":"Appl","amplicon":"DRSC17728","replicate 1, z-score of dpERK with insulin":0.49,"replicate 2, z-score of dpERK with insulin":0.3}
{"gene":"Mos","amplicon":"DRSC07258","replicate 1, z-score of dpERK with insulin":0.22,"replicate 2, z-score of dpERK with insulin":0.43}
{"gene":"CG10950","amplicon":"DRSC06020","replicate 1, z-score of dpERK with insulin":-0.63,"replicate 2, z-score of dpERK with insulin":-0.32}
{"gene":"Uhg2 + snoRNA:Me18S-G1620 + snoRNA:U14:30Ea","amplicon":"DRSC01100","replicate 1, z-score of dpERK with insulin":-0.34,"replicate 2, z-score of dpERK with insulin":-1.21}
{"gene":"Dnai2","amplicon":"DRSC10575","replicate 1, z-score of dpERK with insulin":0.64,"replicate 2, z-score of dpERK with insulin":0.01}
{"gene":"Zcchc7","amplicon":"DRSC11099","replicate 1, z-score of dpERK with insulin":1.75,"replicate 2, z-score of dpERK with insulin":0.24}
{"gene":"Cyp6a16Psi (retired record)","amplicon":"DRSC03307","replicate 1, z-score of dpERK with insulin":0.83,"replicate 2, z-score of dpERK with insulin":0.21}
{"gene":"lncRNA:CR43334","amplicon":"DRSC07894","replicate 1, z-score of dpERK with insulin":0.6,"replicate 2, z-score of dpERK with insulin":0.82}
{"gene":"lncRNA:CR43334","amplicon":"DRSC07895","replicate 1, z-score of dpERK with insulin":0.81,"replicate 2, z-score of dpERK with insulin":0.79}
{"gene":"CG34277 + CG31542","amplicon":"DRSC21544","replicate 1, z-score of dpERK with insulin":-0.45,"replicate 2, z-score of dpERK with insulin":-1.82}
{"gene":"CG31431","amplicon":"DRSC14589","replicate 1, z-score of dpERK with insulin":0.16,"replicate 2, z-score of dpERK with insulin":0.43}
{"gene":"psh","amplicon":"DRSC19990","replicate 1, z-score of dpERK with insulin":-0.87,"replicate 2, z-score of dpERK with insulin":-0.77}
{"gene":"wol","amplicon":"DRSC03077","replicate 1, z-score of dpERK with insulin":-0.01,"replicate 2, z-score of dpERK with insulin":0.14}
{"gene":"PpD5","amplicon":"DRSC04641","replicate 1, z-score of dpERK with insulin":-0.36,"replicate 2, z-score of dpERK with insulin":-0.15}
{"gene":"CG12259","amplicon":"DRSC14486","replicate 1, z-score of dpERK with insulin":0.05,"replicate 2, z-score of dpERK with insulin":-0.02}
{"gene":"tara","amplicon":"DRSC17076","replicate 1, z-score of dpERK with insulin":0.38,"replicate 2, z-score of dpERK with insulin":0.2}
{"gene":"Scsalpha2","amplicon":"DRSC16003","replicate 1, z-score of dpERK with insulin":0.28,"replicate 2, z-score of dpERK with insulin":-0.09}
{"gene":"CG7408","amplicon":"DRSC10841","replicate 1, z-score of dpERK with insulin":0.09,"replicate 2, z-score of dpERK with insulin":-0.77}
{"gene":"CG11581","amplicon":"DRSC19407","replicate 1, z-score of dpERK with insulin":-0.05,"replicate 2, z-score of dpERK with insulin":-0.22}
{"gene":"brv1","amplicon":"DRSC11076","replicate 1, z-score of dpERK with insulin":0.03,"replicate 2, z-score of dpERK with insulin":0.68}

3 entries already listed, sorted by “replicate 2, z-score of dpERK with insulin”, highest first:
{"gene":"CR17438","amplicon":"DRSC18125","replicate 1, z-score of dpERK with insulin":0.3,"replicate 2, z-score of dpERK with insulin":0.9}
{"gene":"Atg16","amplicon":"DRSC15375","replicate 1, z-score of dpERK with insulin":0.6,"replicate 2, z-score of dpERK with insulin":-0.03}
{"gene":"noc","amplicon":"DRSC03580","replicate 1, z-score of dpERK with insulin":0.13,"replicate 2, z-score of dpERK with insulin":-1.11}
